# ± gives the standard deviation of the averaged measurements. Some of the results follow.
# Test system: Madurella mycetomatis MM55
# Assay: metabolic activity (growth) relative to DMSO growth control; higher = more fungal growth
SMILES,metabolic activity (1 µM) [%],metabolic activity (2 µM) [%],metabolic activity (10 µM) [%]
COc1cc(Nc2nccc(N3CCC(NC(=O)C4COc5ccccc5O4)C3)n2)cc(OC)c1OC (configuration not stated),103 ± 28,105 ± 10,112 ± 9.8
O=C1NC(=O)C(c2c[nH]c3sccc23)=C1c1nc(N2CCN(CCO)CC2)nc2ccccc12,98.2 ± 29,55 ± 30,97.7 ± 18
CC[C@]1(F)CN(C2CCCC2)c2nc(Nc3ccc(C(=O)NC4CCN(C)CC4)cc3OC)ncc2N(C)C1=O,121 ± 17,126 ± 28,104 ± 7.4
Nc1n[nH]c2ncc(-c3ccccc3)cc12,116 ± 10,112.2 ± 0.72,104 ± 13
Cc1ccc(NC(=O)c2cc(N3CCOCC3)cc(S(F)(F)(F)(F)F)c2)cc1Nc1cc(-c2cn[nH]c2)nn1C,106 ± 2.9,112 ± 55,107 ± 40
CCC(=O)c1c(-c2ccccc2)c2cc(Cl)ccc2c(=O)n1Cc1cc(S(C)(=O)=O)n(CC(N)=O)n1,109.2 ± 0.11,77.2 ± 2.5,113 ± 11
O=C(O)CSc1ncnc2cc(-c3cc4ccccc4s3)sc12,104 ± 27,104 ± 27,131 ± 34
C/C(Nc1ccc(S(N)(=O)=O)cc1)=C1/C(=O)Nc2ccccc21,101 ± 20,66.4 ± 4.5,112 ± 11
CCn1c2cc(Cl)c(F)cc2c(=O)c2c(=O)o[nH]c21,92.6 ± 28,91.7 ± 18,86.1 ± 18
C[C@@H](Oc1cc(-n2cnc3ccc(OC4CCN(C)CC4)cc32)sc1C(N)=O)c1ccccc1Cl,97.8 ± 5.9,84.8 ± 6.3,99.1 ± 31
Cc1ccc(NC(=O)c2cccc(C3(C#N)CCOCC3)c2)cc1C(=O)Nc1ccc2ncsc2c1,95.2 ± 40,90.1 ± 12,86.76 ± 0.37
O=C1Nc2ccc(C(=O)c3ccco3)cc2C1=Cc1cc(Cl)c(O)c(Cl)c1,87.7 ± 11,126 ± 2.6,124 ± 2.6
COc1cc2c(cc1OC)Nc1cc(-c3ccc([N+](=O)[O-])c(OC)c3)ccc1C(=O)N2,96 ± 3.4,95 ± 5,79.6 ± 31
CCOc1cc(N2CCC(O)CC2)ccc1Nc1ncc2c(n1)N(C)c1ccccc1C(=O)N2C,95.4 ± 12,87.4 ± 10,90.4 ± 10
O=C(O)C(F)(F)F.O=C(O)C(F)(F)F.c1cc(CNc2nc3ccc(-c4ccncc4)cc3s2)cc(CN2CCOCC2)c1,109 ± 36,109 ± 31,142 ± 64
C[C@H]([NH2+]c1nc(-c2c[nH]c3ncc(Cl)cc23)cn(C)c1=O)C(=O)NCC(F)(F)F.O=C([O-])C(F)(F)F,96.8 ± 8.5,63.2 ± 42,134.3 ± 1.3
COc1ncc(-c2cc(-c3ncc(CN4C[C@@H](C)O[C@@H](C)C4)o3)c3cn[nH]c3c2)cc1NS(C)(=O)=O,95.6 ± 28,82.2 ± 2.4,73.5 ± 47
COc1cc2ncn(-c3cc(OCc4ccncc4)c(C(N)=O)s3)c2cc1OC,92.2 ± 8.6,103 ± 27,99.2 ± 21
Cc1cc(O)cc(C)c1/C=C/c1cncc(C(N)=O)c1,101 ± 42,81.8 ± 16,104 ± 1.9
CC(=O)c1c(C)c2cnc(Nc3ccn(C)n3)nc2n(C2CCCC2)c1=O,112 ± 35,70.6 ± 7.9,115 ± 11
CN1CCN(C(=O)c2cccc(NC(=O)Nc3ccc(N(C)c4ccnc(Nc5ccc(CS(C)(=O)=O)cc5)n4)cc3)c2)CC1.Cl,102 ± 34,108 ± 4,120 ± 7.8
CN1CCN(c2cccc(Nc3ncc4c(=O)n(-c5ccccc5Cl)c5nccn5c4n3)c2)CC1.O=C(O)C(F)(F)F.O=C(O)C(F)(F)F,97 ± 20,99.9 ± 24,113 ± 22
O=C1Nc2ccc(I)cc2C1=Cc1cc(Br)c(O)c(Br)c1,107 ± 44,114 ± 28,98.3 ± 4.2
COc1ccc(-c2cc3c(N)ncnc3o2)cc1,105 ± 3.5,91 ± 8.4,103 ± 16

# Record cards, from the list above. Order of values: metabolic activity (1 µM) [%] | metabolic activity (2 µM) [%] | metabolic activity (10 µM) [%]
# `COc1cc2ncn(-c3cc(OCc4ccncc4)c(C(N)=O)s3)c2cc1OC` is listed with 92.2 ± 8.6 | 103 ± 27 | 99.2 ± 21
# `C[C@H]([NH2+]c1nc(-c2c[nH]c3ncc(Cl)cc23)cn(C)c1=O)C(=O)NCC(F)(F)F.O=C([O-])C(F)(F)F` is listed with 96.8 ± 8.5 | 63.2 ± 42 | 134.3 ± 1.3

# Reference: the supplement of paper PMC12425257
